For five molecules, binding results are on record in patent publication US20150307625A1 (Bayer, published 2015).

By UniProt entry, the sequences of proteins in these tests, tags left out. Where a name states a change or a piece, a line headed by the entry shows the natural chain unless it says otherwise.
UniProt P04070: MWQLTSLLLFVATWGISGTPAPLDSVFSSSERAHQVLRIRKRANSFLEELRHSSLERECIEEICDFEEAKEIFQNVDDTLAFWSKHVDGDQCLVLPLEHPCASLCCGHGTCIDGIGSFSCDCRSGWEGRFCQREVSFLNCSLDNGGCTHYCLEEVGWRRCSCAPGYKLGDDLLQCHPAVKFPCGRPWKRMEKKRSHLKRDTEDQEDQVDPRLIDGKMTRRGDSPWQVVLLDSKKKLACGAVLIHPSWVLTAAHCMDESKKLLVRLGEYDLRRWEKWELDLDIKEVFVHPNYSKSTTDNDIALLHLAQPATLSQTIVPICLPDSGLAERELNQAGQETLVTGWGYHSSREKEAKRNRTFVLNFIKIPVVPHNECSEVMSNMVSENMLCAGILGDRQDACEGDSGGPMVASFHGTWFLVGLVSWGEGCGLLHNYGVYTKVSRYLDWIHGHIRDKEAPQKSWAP

Results are given in words; binding and its absence hold for the method and conditions named. Some results given as binding are weak or reduced against the parent protein; the word gives no strength.

Experiment [1] concerns the target human activated Protein C (human) (UniProt P04070). Nature of the experiment: titration on hAPC, MeanValue against concentration, 4-parameter fit [a].
Experiment [2] has as its target plasma-derived human aPC-Gla-domain-less (human) (UniProt P04070). Nature of the experiment: ELISA.
Experiment [3] has the same target. Nature of the experiment: complex formation, gel filtration and SDS-PAGE. (In general: Size exclusion chromatography separates by hydrodynamic size, large species first.)

B1: TPP-2309 (antibody, human IgG2, lambda, V domains shown)
VH: EVQLLESGGGLVQPGGSLRLSCAASGFTFSSYWMSWVRQAPGKGLEWVSGVSWGGSRTHYADSVKGRFTISRDNSKNTLYLQMNSLRAEDTAVYYCALTGRSGWMRFPNWFDPWGQGTLVTVSS
VL: QSVLTQPPSVSGAPGQRVTISCTGSSSNIGAAYDVHWYQQLPGTAPKLLIYGNNKRPSGVPDRFSGSKSGTSASLAITGLQAEDEADYYCQSYDSSLSGSVFGGGTKLTVLG
As for B1, the binding entry in experiment [1] is reported as “binds”.

B2: Variant 2310 (modified C25K23 IgG) (antibody, V domains shown)
VH: EVQLLESGGGLVQPGGSLRLSCAASGFTFSSYWMSWVRQAPGKGLEWVSGVSWQGSRTHYADSVKGRFTISRDNSKNTLYLQMNSLRAEDTAVYYCALTGRSGWMRFPNWFDPWGQGTLVTVSS
VL: QSVLTQPPSVSGAPGQRVTISCTGSSSNIGAAYDVHWYQQLPGTAPKLLIYGNNKRPSGVPDRFSGSKSGTSASLAITGLQAEDEADYYCQSYDSSLSGSVFGGGTKLTVLG
Turning to B2, the binding entry in experiment [1] is “binds”.

B3: T46J23 Fab (Fab, V domains shown)
VH: EVQLLESGGGLVQPGGSLRLSCAASGFTFGNHWMTWVRQAPGKGLEWVSGVSWNGSRTHYADSVKGRFTISRDNSKNTLYLQMNSLRAEDTAVYYCALTGRSGWMRFPNWFDPWGQGTLVTVTS
VL: LTQPPSASGTPGQRVTISCTGTSSNIGAGYDVHWYQQLPGTAPKLLIYDNNNRPSGVPDRFSGSKSGTSASLAISGLRSEDEADYYCAAWDDSLNGVVFGGGTKLTVLG
notes: Human Fab (lambda), expressed in E. coli
With B3, the binding result in experiment [2] is “binds”.

B4: C25K23 Fab (Fab, V domains shown)
VH: EVQLLESGGGLVQPGGSLRLSCAASGFTFSSYWMSWVRQAPGKGLEWVSGVSWNGSRTHYADSVKGRFTISRDNSKNTLYLQMNSLRAEDTAVYYCALTGRSGWMRFPNWFDPWGQGTLVTVTS
VL: QSVLTQPPSASGTPGQRVTISCTGSSSNIGAAYDVHWYQQLPGTAPKLLIYGNNKRPSGVPDRFSGSKSGTSASLAISGLRSEDEADYYCQSYDSSLSGSVFGGGTKLTVLG
notes: Human Fab (lambda) from a phage library, expressed in E. coli; also called Fab C25K23
Regarding B4, the binding result in experiment [3] and in experiment [2] was “binds” throughout.

B5: Variant 2312 (modified C25K23 IgG) (antibody, V domains shown)
VH: EVQLLESGGGLVQPGGSLRLSCAASGFTFSSYWMSWVRQAPGKGLEWVSGVSWNGARTHYADSVKGRFTISRDNSKNTLYLQMNSLRAEDTAVYYCALTGRSGWMRFPNWFDPWGQGTLVTVSS
VL: QSVLTQPPSVSGAPGQRVTISCTGSSSNIGAAYDVHWYQQLPGTAPKLLIYGNNKRPSGVPDRFSGSKSGTSASLAITGLQAEDEADYYCQSYDSSLSGSVFGGGTKLTVLG
On to B5, for which the binding entry in experiment [1] is reported as “binds”.
